Values from PubChem BioAssay AID1224830 (NIAID, 2016)
Here is a random part of about 18,000 reagents tested. About 2,900 of them (16%) were called active. 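Calls are made per well; low scores hint the gene aids the LPS response, high scores that it dampens it.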 Unmarked entries are inactive. Repeated entries: four replicate wells of each siRNA pool.

- Assay: 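Host factors that control LPS-induced TNF expression in human macrophages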 (primary screen)
- System: human THP-1 monocytic leukaemia cells, TNF dual-luciferase reporter clone, PMA-differentiated to macrophage-like cells
- Reagents: siRNA pool against human genes, 50 nM
- Duration: LPS for 4 h, given about 3 days after siRNA transfection
- Conditions: bacterial LPS (TLR4 ligand), 10 ng/ml
- Measurement: 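Ratio of firefly to renilla light, scaled to the plate median and expressed as a robust z-score per replicate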
- Scale: TNF reporter robust z-score: higher = stronger TNF reporter response to LPS
- Rule for the call: 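Each well counts as active if its z-score is over 2.8 or under -1.5; controls are left without a call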

no.	gene symbol	TNF reporter robust z-score
1	TMEM87A	-1.51 (active)
2	TMEM87A	-0.83
3	TMEM87A	-1.32
4	TMEM87A	-1.29
5	FOXD4L1	-1.33
6	FOXD4L1	-1.07
7	FOXD4L1	-0.1
8	FOXD4L1	-1.58 (active)
9	SLC10A6	1.39
10	SLC10A6	2.14
11	SLC10A6	0.44
12	FAIM	-0.08
13	FAIM	1.73
14	FAIM	0.28
15	FAIM	-0.31
16	YTHDF3	0.01
17	YTHDF3	1.23
18	YTHDF3	0.15
19	YTHDF3	1.42
20	TINAG	0.36
21	TINAG	-0.01
22	TINAG	1.55
23	TINAG	0.41
24	BAGE	0.14
25	BAGE	0.09
26	BAGE	0.4
27	KIAA0586	-1.34
28	KIAA0586	-1.09
29	KIAA0586	-1.57 (active)
30	KIAA0586	-0.81
31	POFUT3	-0.48
32	POFUT3	-0.73
33	POFUT3	-0.34
34	IGF2BP1	1.92
35	IGF2BP1	1.08
36	IGF2BP1	1.49
37	IGF2BP1	2.7
38	ERCC1	-0.63
39	ERCC1	0.06
40	ERCC1	-0.24
41	ERCC1	0.04
42	FRYL	-0.5
43	FRYL	-0.59
44	FRYL	0.11
45	FRYL	-0.61
